# From the supplement of paper PMC10689618
# The other results are listed elsewhere or left out. Repeats are few or missing, and single values can be far off.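 Primary human fetal astrocytes engulfed labelled rat cortical synaptosomes, measured as a red/green ratio corrected for calcein live-cell signal and scaled to the plate median. Toxicity meant calcein falling over 30%; decreased phagocytosis meant below 70% of median above 5 µM.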
# Experiments:
# Human fetal astrocytes [1] = test: loss of total cells relative to no-compound high-control median (toxicity); higher = more toxic (fewer cells); details: 24 h
# Human fetal astrocytes [2] = test: synaptosome phagocytosis (pHrodo/calcein intensity ratio) relative to plate median of data wells; higher = more phagocytosis; details: 24 h
Structure (SMILES),loss of total cells (Human fetal astrocytes [1]; 1.39 µM),loss of total cells (Human fetal astrocytes [1]; 2.78 µM),loss of total cells (Human fetal astrocytes [1]; 5.56 µM),loss of total cells (Human fetal astrocytes [1]; 11.11 µM),loss of total cells (Human fetal astrocytes [1]; 22.22 µM),synaptosome phagocytosis (Human fetal astrocytes [2]; 1.39 µM),synaptosome phagocytosis (Human fetal astrocytes [2]; 2.78 µM),synaptosome phagocytosis (Human fetal astrocytes [2]; 5.56 µM),synaptosome phagocytosis (Human fetal astrocytes [2]; 11.11 µM),synaptosome phagocytosis (Human fetal astrocytes [2]; 22.22 µM)
CN(C)c1nc(N(C)C)nc(N(C)C)n1 [Altretamine],-8.9%,-16.7%,11.8%,12.1%,-12.8%,117%,93.1%,136%,82.1%,93.4%
O=C(OCc1ccccc1)c1ccccc1,-32.3%,-40.5%,5%,-6.2%,-2.2%,112%,82%,120%,98.2%,86.8%
"C=C1C2CCC3(C)C(c4ccoc4)OC(=O)CC13OC1CC(OC(C)=O)C(C)(C)C(CC(=O)OC)C12C (stereo not drawn) [3beta-ACETOXYDEOXYANGOLENSIC ACID, METHYL ESTER]",7.6%,-10.6%,35.9%,11.6%,6.3%,97.2%,93.8%,130%,96.1%,104%
CC(C)=CC1C(C(=O)O)C1(C)C (stereo not given),-18%,-0.4%,2.9%,0.7%,13.3%,124%,110%,80.3%,114%,92.7%
